From US9751919B2, “Antimicrobial compositions comprising a hyaluronic acid binding peptide and a β-lactam antibiotic” (priority 2012, dated 2017)
Some of these results come from one statement about several compounds together.

Columns and labels:
[1] = system: MRSA, VISA, VRSA and E. coli; assay: MIC, agent alone, panel statement; format: cell-based; conditions: CA-MRSA and HA-MRSA (checkerboard strains of Table 11)
Description: VISA (strains 92, 95 and 96), VRSA (strains 105 and 106) and E. coli (strain 69717) isolates were also tested. One MSSA was used as a control. All MICs were assessed using CLSI guidelines. Also assessed was the activity of cefazolin, ceftriazone, meropenem, and a piperacillin/tazobactam combination antibiotic. Minimum inhibitory concentration (MIC) is the lowest concentration of an antimicrobial that will inhibit the visible growth of a microorganism after incubation.
Antimicrobial Susceptibility Testing: A custom designed panel of antimicrobials was created. The panel included: PEP35, penicillin, piperacillin/tazobactam, cefazolin, ceftriaxone, meropenem, clarithromycin, clindamycin, gentamicin, amikacin, vancomycin, ciprofloxacin, levofloxacin, moxifloxacin, linezolid, trimethoprim/sulfamethoxazole and doxycycline. […] Following two subcultures from frozen stock the MICs of the antimicrobial agents for the isolates were determined by the CLSI 2005 approved broth macrodilution method. Briefly, test tubes containing doubling antibiotic dilutions (2 ml per tube) of cation adjusted Mueller-Hinton broth (eg. for Enterobacteriaceae) with or without lysed horse blood (2-5% V/V) [eg. for S. pneumoniae] were inoculated to achieve a final concentration of approximately 5×10^5 CFU/ml and incubated in ambient air for 24 hours prior to reading. […]

Gram-positive cocci = assay: Checkerboard assay, panel statement; format: cell-based; conditions: beta-lactam with PEP35; CA-MRSA and HA-MRSA
Description: The checkerboard assays were carried out as described by Eliopoulos and Moellering (Chapter 9) in Antibiotic in Laboratory Medicine, Lorian Ed. 1996 as well as Bonapace et al. Diagnostic Microbiology and Infectious Diseases 2002; 44:363-366 and Bonapace et al. Diagnostic Microbiology and Infectious Diseases 2000; 38:43-50. In brief, checkerboard assays were performed in 96 well microtitre trays using an 8-by-8 well configuration. […] 96-well custom designed microtitre plates contained 100 ul/well of cation adjusted Mueller-Hinton broth (eg. for Enterobacteriaceae) with or without lysed horse blood (2-5% V/V) [eg. for S. pneumoniae] and were inoculated to achieve a final concentration of approximately 5×10^5 CFU/ml and incubated in ambient air for 24 hours prior to reading. Colony counts were performed periodically to confirm inocula. Quality control was performed every two weeks using a variety of ATCC QC organisms including; S. pneumoniae 49619, S. aureus 29213, E. faecalis 29212, E. coli 25922 and P. aeruginosa 27853. For all antimicrobials as well as PEP35, CLSI criteria was used. […]
The FIC of drug A and drug B is calculated as follows, FIC drug A=MIC of drug A in combination/MIC of drug A alone and FIC of drug B=MIC of drug B in combination/MIC of drug B alone. […]

Row | SMILES | MIC alone, range [1] [µg/mL] | FIC index (Gram-positive cocci)
1 | Cc1nnc(SCC2=C(C(=O)O)N3C(=O)[C@@H](NC(=O)Cn4cnnn4)[C@H]3SC2)s1 [Cefazolin] | 16 to 256 | ≤ 0.5
2 | CO/N=C(\C(=O)N[C@@H]1C(=O)N2C(C(=O)O)=C(CSc3nc(=O)c(=O)[nH]n3C)CS[C@H]12)c1csc(N)n1 [Ceftriaxone] | 16 to 256 | ≤ 0.5
